Host macrophage viability data for 104 compounds are collected here from the supplement of paper PMC12578635.

± gives the standard deviation of the averaged measurements. Some of the results follow. Many values rest on one well or one pass, so single values are uncertain.

The assay has as its system RAW 264.7 macrophages infected with S. aureus JE2-lux. The assay is described as follows: host macrophage viability (CellTiter-Fluor) relative to DMSO vehicle; higher = more viable host cells. The settings on record: 10 µM; treatment time 4 h; gentamicin 50 µg/ml.
Regarding `O=C(OC(C(=O)NC1CCCCC1)c1ccc2ncccc2c1)c1cccs1` (centres undefined), the host macrophage viability is 113%.
For the compound `COc1ccc(C(=O)Nc2sc(Cc3ccc4c(c3)OCO4)c(C)c2C#N)cc1`, the host macrophage viability was found to be 147%.
As for `Cc1cc2cc(CNC(=O)c3ccc([N+](=O)[O-])cc3)ccc2[nH]1`, the host macrophage viability came out at 114 ± 16%.
For `Cc1ccc(-c2ccc(/C=C3\SC(=S)N(CC(=O)O)C3=O)o2)cc1`, the host macrophage viability was 129%.
On to `CCN(CC)c1ccc(C2C3=C(CCCC3=O)Nc3[nH]c(=O)[nH]c(=O)c32)cc1` (centres undefined), for which the host macrophage viability was 116%.
Under `Cc1ccc(S(=O)(=O)c2nnn3c2nc(NCc2ccc(Cl)cc2)c2ccccc23)c(C)c1` stands 136%; under `COc1ccc(CN(Cc2cc3ccc(C)c(C)c3nc2Cl)C(=O)C2CC2)cc1`, 115%; under `O=C(COc1ccccc1)N1CCC[C@@H]1Cn1nc(-c2cccs2)ccc1=O`, 90.4%.
Consider `COC(=O)c1c(NC(=O)CCc2ccc(C)o2)sc2c1CCCC2`, for which the host macrophage viability amounted to 106%.
Under `Cc1cc(C)cc(NC(=O)CN2C(=O)C3(SCC(=O)N3c3ccc(F)cc3)c3ccccc32)c1` (centres undefined) stands 125%; under `COc1cccc(C(=O)Nn2c(C3CCC3)nc3ccccc3c2=O)c1`, 122%.
The value for `Cc1ccc(NS(=O)(=O)c2ccc(Cl)cc2)c(-c2nc3ccccc3[nH]c2=O)c1` was 118%; that for `N#Cc1c(N)c(C(=O)c2ccc(Cl)cc2)n2ccccc12` was 113%; that for `COc1ccccc1NCN1C(=O)C(=O)c2ccccc21` was 114%.
As to `COc1cccc(N(C(=O)c2cccs2)C(C(=O)NC2CCCCC2)c2ccc3ncccc3c2)c1` (centres undefined), the host macrophage viability was 120%.
`CCOc1ccc(-c2nc(SCC(=O)NCCC(C)C)n3[nH]c(=O)cc3n2)cc1`: the host macrophage viability amounted to 138%.
`Cc1ccc(CN2CCC(CNC(=O)c3cn[nH]c3C3CCNCC3)CC2)cc1`: the host macrophage viability was 114%.
With `CCc1cccc(CC)c1NC(=O)c1cncc(Br)c1`, the host macrophage viability stood at 123%.
Consider `O=C(CSc1nc2[nH]ncc2c(=O)n1-c1ccccc1Br)NCc1ccco1`, for which the host macrophage viability came to 102 ± 13%.
Turning to `CC1=NNC(=O)/C1=N\Nc1ccc(S(=O)(=O)Nc2nc(C)cc(C)n2)cc1`, the host macrophage viability amounted to 106%.
For the compound `Cc1ccccc1-c1nc(Cn2c(=O)c3cccnc3n(-c3ccccc3)c2=O)c(C)o1`, the host macrophage viability was 118%.
`Cn1c(NC(=O)COc2ccccc2)cc(=O)n(C)c1=O`: the host macrophage viability was 124%.
The value for `O=C1NC2=C(C(=O)N(Cc3ccc(F)cc3)C2)C(c2ccc([N+](=O)[O-])cc2)N1` (centres undefined) was 108%; that for `NC(=O)C1CCN(C(=O)NCc2noc3ccccc23)CC1` was 119%; that for `COC(=O)C1=C(C)Nc2nc(SCc3ccccc3)[nH]c(=O)c2C1c1cccc(F)c1` (centres undefined) was 117%.
For `Cn1c(=O)[nH]c(=O)c2c1nc(SCc1ccccc1Cl)n2CCc1ccccc1`, the host macrophage viability was 105%.
With `COc1ccc(C(=O)N2CCOC2CNC(=O)C(=O)NCc2ccccc2)cc1` (centres undefined), the host macrophage viability came to 109%.
For `COc1cc(/C=C\C(=O)NCCc2cc3cc(C)c(C)cc3[nH]c2=O)cc(OC)c1OC`, the host macrophage viability stood at 102%.
Take `CC(=O)N(C(C)=O)c1ncnc2sc3c(c12)CCCC3`: the host macrophage viability was found to be 77.8%.
As to `COc1ccc(NC(=O)N2CCC(n3cnc4cc(C(F)(F)F)ccc43)CC2)cc1`, the host macrophage viability was determined as 110%.
Regarding `Cc1cc(C)c2nc(NC(=O)Nc3cccc(Cl)c3)sc2c1`, the host macrophage viability amounted to 115%.
Take `COc1cc(NC(=O)Cn2ncn3nc4c(c3c2=O)CCCC4)cc(OC)c1`: the host macrophage viability came out at 119%.
In the case of `O=C(Nc1ccc(OC(F)(F)F)cc1)c1ccc2nc[nH]c2c1`, the host macrophage viability worked out at 133%.
Under `Cc1sc(NC(=O)c2cc3cc([N+](=O)[O-])ccc3s2)c(C#N)c1C` stands 109%; under `O=C(Nc1ccc2[nH]cnc2c1)c1ccc2nccnc2c1`, 109%.
For `O=C1c2ccccc2-c2c(Nc3ccccc3)c(=O)[nH]c3cccc1c23`, the host macrophage viability worked out at 113%.
Turning to `COc1ccc(C(=O)/C=C2\C(=O)Nc3ccccc32)cc1`, the host macrophage viability came to 93.9%.
On to `Cc1oc2c(c1C(=O)O)C(=O)c1ccccc1C2=O`, for which the host macrophage viability was found to be 124%.
The value for `CCOC(=O)C(C)Sc1ncnc2c1nnn2Cc1ccc(F)cc1` (centres undefined) was 110 ± 4.6%; that for `COc1cccc(NC(=O)N2CCC(NC(=O)c3ccc(F)cc3)CC2)c1` was 108%; that for `O=C(NCc1nnnn1-c1ccccc1)c1cc(=O)c2ccccc2o1` was 113%.
Consider `Cn1c(=O)c2nc(SCC(=O)c3ccc(Cl)c(Cl)c3)[nH]c2n(C)c1=O`, for which the host macrophage viability was determined as 131%.
On to `Cc1oc2ncnc(OCC(=O)Nc3cccc(Cl)c3C)c2c1C`, for which the host macrophage viability was determined as 116%.
For the compound `CCCC(=O)Nc1sc(Nc2ccc(C)cc2)nc1C(N)=O`, the host macrophage viability is 88.1%.
Under `COc1ccc(C(CNc2nn3cnnc3c3ccccc23)N2CCOCC2)cc1` (centres undefined) stands 96.6%; under `O=C(Cc1cc(=O)[nH]c(=O)[nH]1)NCCN1CCOCC1`, 111%; under `COCCCNC(=O)NC(c1ccccc1)c1nnc(-c2ccc(Cl)cc2)o1` (centres undefined), 103%.
Consider `O=C(O)C(Sc1nncc(-c2ccccc2)n1)c1ccccc1` (centres undefined), for which the host macrophage viability turned out to be 103%.
As for `Nc1ncnc(Nc2cc(C(F)(F)F)ccc2Cl)c1[N+](=O)[O-]`, the host macrophage viability was 106%.
Regarding `COC(=O)c1ccc(C(=O)Nc2nc3c(cc4c5c(cccc53)CC4)s2)cc1`, the host macrophage viability was found to be 117 ± 20%.
As to `CN1C(=O)c2cccc(NC(=O)c3cc4c(ccc5ccccc54)oc3=O)c2C1=O`, the host macrophage viability is 113%.
As to `CC(NC(=O)CC1CCN(C(=O)c2cc3cc(Cl)ccc3[nH]2)CC1)c1ccccc1` (centres undefined), the host macrophage viability was determined as 89.5%.
For `CCn1nc(C)c2ccnc(N3CCC(C(=O)Nc4cc(Cl)c(OC)cc4OC)CC3)c21`, the host macrophage viability is 134%.
In the case of `Cc1noc(C)c1CCC(=O)N1CCC[C@@H](CNC(=O)c2ccco2)C1`, the host macrophage viability was 121%.
In the case of `Cc1ccc(COc2cccc3c2CCNC3=O)cc1`, the host macrophage viability was determined as 117%.
Regarding `CC1(C)CC(=O)C2=C(C1)Nc1ccccc1N(CC(=O)NCc1ccncc1)C2c1ccco1` (centres undefined), the host macrophage viability was found to be 130%.
Under `CCOc1ccc(NC(=S)NNc2nc(N3CCCC3)nc(N3CCCC3)n2)cc1` stands 110%; under `Cn1c(=O)c(-c2noc(C(=O)N3CCC(N4CCCCC4)CC3)n2)nn(-c2ccc(F)cc2)c1=O`, 105%; under `Cc1ccc(C)c(COc2coc(CSc3nncn3C)cc2=O)c1`, 122%.
Under `O=C(CSCc1ccccc1)Nc1nc2c(s1)COc1ccccc1-2` stands 95.8%; under `Cc1ccc(NCc2nc3c([nH]2)c(=O)n(C)c(=O)n3C)cc1`, 100%.
Take `COc1ccc(NC(=O)c2ncoc2-c2ccc(OC)c(OC)c2)c(OC)n1`: the host macrophage viability was found to be 106%.
Take `CN(C)S(=O)(=O)c1ccc(C(=O)NNC(=O)c2ccc3c(c2)CCCC3)cc1`: the host macrophage viability amounted to 105%.
In the case of `O=C(NCC1COc2ccccc2O1)C(=O)c1cn(CC(=O)N2CCCCC2)c2ccccc12` (centres undefined), the host macrophage viability stood at 99.2%.
For `Clc1ccccc1-n1cc(-c2ccccc2)c2c(N3CCCCC3)ncnc21`, the host macrophage viability came out at 120%.
Consider `COc1ccc(NC(=O)CSc2ncnc3ccccc23)cc1OC`, for which the host macrophage viability amounted to 116 ± 3.9%.
As to `CCOC(=O)c1cccc(NC(=O)CCCc2nc3cccnc3n2Cc2ccc(C)cc2)c1`, the host macrophage viability was 98%.
Turning to `COc1ccc(CNC(=O)CSc2nc3ccc(C(C)C)cc3cc2C#N)cc1`, the host macrophage viability is 113%.
Consider `CCc1nnc2ccc(C(=O)N3CCN(CC)CC3)cn12`, for which the host macrophage viability came to 131%.
In the case of `CCn1c(=O)[nH]c2cc(-c3noc(COc4cccc(C)c4)n3)ccc21`, the host macrophage viability is 116%.
On to `CCCC(=O)N1CCN(c2c(C)n(C)c(=O)n(C)c2=O)CC1`, for which the host macrophage viability amounted to 131%.
Consider `Cc1ccc(S(=O)(=O)Nc2ccc(N3CCn4c(nc5ccccc54)C3)cc2C)cc1`, for which the host macrophage viability worked out at 142%.
Under `Cn1c(=O)c2c(ncn2CC(=O)c2ccc([N+](=O)[O-])cc2)n(C)c1=O` stands 122%; under `N#Cc1c(NC(=O)c2ccc(C(=O)Nc3sc4c(c3C#N)CCCC4)s2)sc2c1CCCC2`, 114%; under `c1ccc(-c2oc3ncnc(N4CCN(Cc5ccc6c(c5)OCO6)CC4)c3c2-c2ccccc2)cc1`, 113%.
Take `Cc1nn(-c2ccc(-c3noc(C4CC4)n3)cc2)cc1C(=O)N1CCn2c1nc1ccccc12`: the host macrophage viability amounted to 125%.
Under `COc1cc([N+](=O)[O-])cc2sc(NC(=O)CSc3ccc(Cl)cc3)nc12` stands 106%; under `Cc1nn(C(=O)c2cccnc2)c(C)c1Sc1ccccc1[N+](=O)[O-]`, 101%.
Take `COc1cc(NC(=O)C2(C)CCCO2)ccc1NC(=O)CN1CCOCC1` (centres undefined): the host macrophage viability was 116%.
In the case of `Cc1cc(-c2cn[nH]c2C2CCN(C(=O)c3ccncc3)CC2)on1`, the host macrophage viability is 128%.
Under `O=C(NC1CCCc2ccccc21)c1cc2n(n1)CCCN(Cc1ccccc1)C2=O` (centres undefined) stands 99.3%; under `O=C(COc1ccccc1)Nc1cc(=O)[nH]c(=O)[nH]1`, 106%; under `O=C(c1ccco1)N1CCN(c2cc(=O)n(Cc3ccc(F)cc3)c(=O)[nH]2)CC1`, 119.2 ± 0.67%.
Take `Cn1c(=O)[nH]c(=O)c2c1nc(Br)n2Cc1ccc(F)cc1`: the host macrophage viability stood at 104 ± 4.9%.
`O=C(CCn1c(=S)[nH]c2cc3c(cc2c1=O)OCO3)NCCc1ccc(Cl)cc1`: the host macrophage viability stood at 128%.
Turning to `Cc1ccc(C(c2sc3ncnn3c2O)N2CCOCC2)cc1` (centres undefined), the host macrophage viability amounted to 118%.
Under `CC1=C(C(=O)OCc2ccccc2)C(c2cccs2)C(C#N)=C(N)O1` (centres undefined) stands 125%; under `C=CCOc1ccccc1NC(=O)Cn1c(=O)oc2cc(Cl)ccc21`, 95.8%; under `CC(=O)N1CCCc2ccc(NC(=O)C(=O)NCc3cccnc3)cc21`, 104%.
The value for `CCc1nc(NCc2ccc(OC)cc2OC)c2onc(-c3ccccc3)c2n1` was 93.2%.
Turning to `Cc1ccnc(SCc2cc(=O)c(OC(=O)COc3ccc(F)cc3)co2)n1`, the host macrophage viability was found to be 116%.
On to `CCOCCn1c(SCc2c(F)cccc2Cl)nc2c1c(=O)[nH]c(=O)n2C`, for which the host macrophage viability worked out at 115%.
The value for `Cc1ccc(NC2CC(=O)N(CCc3ccccc3)C2=O)cc1` (centres undefined) was 119%; that for `COC(=O)c1ccc(CSc2ncnc3ccccc23)o1` was 106 ± 7.3%; that for `CCC(Sc1ccc2nnc(-c3cccnc3)n2n1)C(=O)O` (centres undefined) was 119%.
`O=C(N/N=C\c1ccco1)c1cc([N+](=O)[O-])cc([N+](=O)[O-])c1`: the host macrophage viability was 103 ± 2.8%.
As to `O=c1[nH]c2cc3c(cc2c(=O)n1Cc1nc(-c2ccccc2Br)no1)OCO3`, the host macrophage viability worked out at 118%.
On to `CC(C)c1csc(-c2csc(S(=O)(=O)NCc3ccc4c(c3)OCO4)c2)n1`, for which the host macrophage viability was found to be 70.2%.
Under `Cc1nc(-c2csc(S(=O)(=O)NCc3ccccc3Cl)c2)sc1C` stands 86.5%; under `Cc1cc2oc(C(=O)NCc3ccncc3)c(C)c2cc1C`, 113%.
As for `CSC1=C(C#N)C(c2ccco2)C(C(=O)Nc2ccccc2C)=C(C)N1` (centres undefined), the host macrophage viability amounted to 126%.
Take `NC(=O)c1ccc(NC(=O)c2cn(Cc3cccc(F)c3)nc2OCc2cccc(F)c2)cc1`: the host macrophage viability was 104%.
Turning to `Cc1ccc(Cn2nnc3c(SCC(=O)NCc4ccc5c(c4)OCO5)ncnc32)cc1`, the host macrophage viability is 117 ± 13%.
Consider `Nc1c(-c2nc(-c3ccncc3)no2)nnn1-c1ccccc1Cl`, for which the host macrophage viability turned out to be 120%.
